Results reported in the supplement of paper PMC3334620.
Over roughly 33,000 sequences, “E-score (-0.5 to 0.5)” has its median near -8e-05; the highest 2% begin near 0.23. The list shows a part of the results.

What follows are sequences tested against T1, Nrg2 (UniProt P38082) (assay: PBM E-score (8-mer binding enrichment) (E-score (-0.5 to 0.5)); higher = stronger / more preferred TF binding). Details: protein concentration: 100 nM; construct: GST-full length.
T1 sequence: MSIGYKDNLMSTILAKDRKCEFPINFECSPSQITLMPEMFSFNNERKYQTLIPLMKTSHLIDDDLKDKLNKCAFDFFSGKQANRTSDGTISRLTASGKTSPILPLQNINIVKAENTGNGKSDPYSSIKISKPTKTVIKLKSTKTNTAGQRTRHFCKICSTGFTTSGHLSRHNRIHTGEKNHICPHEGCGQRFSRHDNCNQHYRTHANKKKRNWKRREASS
How it was run: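 Each ungapped eight-base word and its reverse complement, pooled, received an E-score from the Universal PBM Analysis Suite. Underlying scans, normalised with masliner, recorded fluorescent anti-GST bound to GST-tagged yeast transcription factors. These were applied at about 100-200 nM to universal all-10-mer Agilent arrays double-stranded by primer extension.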
AGAATAAG was tested, and the “PBM E-score” value was 0.113. For ATACCCTG, the “PBM E-score” value was 0.295. With ACTCCACG the “PBM E-score” value was -0.152. In the case of ATAATAAC, the “PBM E-score” value is reported as 0.177. In the case of CTGAGTAA, the “PBM E-score” value is reported as 0.124. For CTAAGCCA, the “PBM E-score” value was -0.213. With AAAAAATT the “PBM E-score” value was 0.0948. For AGTCCCAG, the “PBM E-score” value was -0.0206. For GGGCCGCA, the “PBM E-score” value was -0.0119. CCGTTAAC was tested, and the “PBM E-score” value was -0.00134. For CTCCTTGA, the “PBM E-score” value was -0.175. AGTTGGAC was tested, and the “PBM E-score” value was 0.141. In the case of ACGAGTAT, the “PBM E-score” value is reported as 0.0482. With CACCAGGG the “PBM E-score” value was -0.0175. For CATGTTGG, the “PBM E-score” value was -0.0788. In the case of GGCAATCA, the “PBM E-score” value is reported as 0.0621. For ACCAAGCT, the “PBM E-score” value was 0.162. AAACGGAA was tested, and the “PBM E-score” value was 0.139. In the case of GCGGAGGA, the “PBM E-score” value is reported as -0.159. In the case of CCTATGGA, the “PBM E-score” value is reported as 0.00679. CAACTAAC was tested, and the “PBM E-score” value was 0.213. In the case of CCAGACGC, the “PBM E-score” value is reported as -0.0802. For ACGCGTGG, the “PBM E-score” value was -0.0608. With CCTGGTGC the “PBM E-score” value was -0.0298. In the case of TGCCCAAA, the “PBM E-score” value is reported as -0.166. For AAGGTGGG, the “PBM E-score” value was -0.145. With AACCTAAC the “PBM E-score” value was 0.0551. For GGCATTTA, the “PBM E-score” value was -0.00361. CCAGATAA was tested, and the “PBM E-score” value was 0.0757. In the case of AAGTGCCT, the “PBM E-score” value is reported as -0.258. ACCCTGCG was tested, and the “PBM E-score” value was 0.254. With ATGTGTAC the “PBM E-score” value was -0.0781. ATGAGCTG was tested, and the “PBM E-score” value was 0.0454. With AGCACTAC the “PBM E-score” value was -0.0695. For CAAGCAGA, the “PBM E-score” value was 0.06. With ATAGCGCC the “PBM E-score” value was -0.0454. ATTCGCCC was tested, and the “PBM E-score” value was 0.0708. In the case of ATTAGCTA, the “PBM E-score” value is reported as 0.186. With CAACCGGC the “PBM E-score” value was 0.0524. With AGGCTTTG the “PBM E-score” value was -0.058. For CCGTGACA, the “PBM E-score” value was -0.005. For CGGGTGGC, the “PBM E-score” value was -0.332. For GATCTGTA, the “PBM E-score” value was 0.0978. GTATCTGA was tested, and the “PBM E-score” value was -0.0255. For AGGTCATG, the “PBM E-score” value was -0.07. With AGGTCAGA the “PBM E-score” value was -0.00746. With TTAGTCAA the “PBM E-score” value was -0.111. With ATGCTCGG the “PBM E-score” value was 0.117. CTCCCGGC was tested, and the “PBM E-score” value was -0.0972. For AAGTGGAT, the “PBM E-score” value was -0.15. CGTTGTCA was tested, and the “PBM E-score” value was 0.128. With AAACGTCT the “PBM E-score” value was 5e-05. CCGAGGCC was tested, and the “PBM E-score” value was -0.138. ATACTTCC was tested, and the “PBM E-score” value was 0.208. For CAACTGTC, the “PBM E-score” value was -0.0271. ACGTGGGG was tested, and the “PBM E-score” value was 0.0377. ATACGAGA was tested, and the “PBM E-score” value was 0.0118. With GAATACTC the “PBM E-score” value was 0.00141. GACTGGGC was tested, and the “PBM E-score” value was -0.267. For GTCGATGA, the “PBM E-score” value was 0.00313. With CGATCTGC the “PBM E-score” value was -0.0778. For GCGAGGTA, the “PBM E-score” value was -0.0448. For CGTTGAAG, the “PBM E-score” value was -0.18. For TACGTGGA, the “PBM E-score” value was -0.0974. With CCTTGTCC the “PBM E-score” value was 0.0636. AGTCAGCA was tested, and the “PBM E-score” value was -0.0526. For ACAGGGGA, the “PBM E-score” value was -0.00166. For AGCTTAAT, the “PBM E-score” value was 0.196. With CTCTGCTC the “PBM E-score” value was -0.0804. With CCTCTAGA the “PBM E-score” value was -0.0463. With GCGAGTAC the “PBM E-score” value was 0.115. With ATACTTGC the “PBM E-score” value was 0.0189. In the case of GGACCACA, the “PBM E-score” value is reported as 0.114. In the case of CGTTTTAG, the “PBM E-score” value is reported as -0.0848. With ACGAAGTA the “PBM E-score” value was -0.0054. For GCTCAGGA, the “PBM E-score” value was -0.078. AAAGTGTT was tested, and the “PBM E-score” value was 0.0175. For ACATCGCT, the “PBM E-score” value was -0.0194. CGGCAAAC was tested, and the “PBM E-score” value was 0.106. GGACTGTA was tested, and the “PBM E-score” value was -0.113. In the case of ACTCGGGG, the “PBM E-score” value is reported as -0.112. AGGTTCCA was tested, and the “PBM E-score” value was -0.098. AGGCAGAT was tested, and the “PBM E-score” value was 0.0547. With CCTCCAGA the “PBM E-score” value was 0.0237. With AATGCGGT the “PBM E-score” value was -0.117. In the case of CATCCCTC, the “PBM E-score” value is reported as 0.0425. In the case of ATCATTGG, the “PBM E-score” value is reported as -0.0111. GGAGTCCA was tested, and the “PBM E-score” value was -0.142. With TAATTAAA the “PBM E-score” value was -0.0298. For TAAATGCA, the “PBM E-score” value was 0.275. For AGTCAGAG, the “PBM E-score” value was -0.0706. In the case of TAATCGCA, the “PBM E-score” value is reported as 0.179. In the case of AGCGTTGC, the “PBM E-score” value is reported as 0.101. With AAGAGAAG the “PBM E-score” value was -0.0556. For AGTGTTGC, the “PBM E-score” value was 0.0975. For CAACGGCG, the “PBM E-score” value was 0.0207. TAGAACGA was tested, and the “PBM E-score” value was -0.0162. For ACTCACCC, the “PBM E-score” value was 0.0888. ACTCCGCC was tested, and the “PBM E-score” value was -0.0663. In the case of ACGACAGG, the “PBM E-score” value is reported as 0.0639. In the case of AATATGTA, the “PBM E-score” value is reported as 0.106. AGGTTCGC was tested, and the “PBM E-score” value was -0.254. For CAAGTGAA, the “PBM E-score” value was -0.0132. In the case of TGAACGAA, the “PBM E-score” value is reported as 0.0651. In the case of ATACACCC, the “PBM E-score” value is reported as 0.0186. AAGCTTAC was tested, and the “PBM E-score” value was -0.0311. For TCGGTGAA, the “PBM E-score” value was -0.0764. In the case of TAACATGA, the “PBM E-score” value is reported as 0.0672. In the case of GAGGGAGA, the “PBM E-score” value is reported as -0.0868. CGCCCTGC was tested, and the “PBM E-score” value was 0.0776. For AAAACCTC, the “PBM E-score” value was 0.168. With CAGTGCTC the “PBM E-score” value was -0.122. For ATTAAGCA, the “PBM E-score” value was -0.00766. In the case of ACTGTGCA, the “PBM E-score” value is reported as 0.032. TGAGGCCA was tested, and the “PBM E-score” value was 0.0312. With CCTTTTTA the “PBM E-score” value was -0.0656. CGAGGTTA was tested, and the “PBM E-score” value was -0.0225. For CGTAAATC, the “PBM E-score” value was -0.0787. For CATTGGAC, the “PBM E-score” value was -0.0127. In the case of AGCCTACG, the “PBM E-score” value is reported as 0.0365. For AAGCGTAC, the “PBM E-score” value was -0.176. AATCTATA was tested, and the “PBM E-score” value was 0.0713. For ATAGGATG, the “PBM E-score” value was 0.204. With AGCGAGGC the “PBM E-score” value was -0.0817. With CGGGGTGA the “PBM E-score” value was 0.0813. AGTCCGCC was tested, and the “PBM E-score” value was -0.163. In the case of CACGTACA, the “PBM E-score” value is reported as -0.151. ATAGTAAG was tested, and the “PBM E-score” value was -0.0266. For GACTTCGA, the “PBM E-score” value was -0.106. CAGCTTCG was tested, and the “PBM E-score” value was 0.0387. In the case of GCGAGTTA, the “PBM E-score” value is reported as 0.162. With GATTTAGA the “PBM E-score” value was -0.0272. CGCAACCG was tested, and the “PBM E-score” value was -0.00904. AAGTATTA was tested, and the “PBM E-score” value was 0.129. GCTCAGCA was tested, and the “PBM E-score” value was -0.133. For TAGTCCGA, the “PBM E-score” value was -0.0335. In the case of GACCAAAC, the “PBM E-score” value is reported as 0.0764. ACACCCGC was tested, and the “PBM E-score” value was 0.224. In the case of AATAGGTG, the “PBM E-score” value is reported as -0.0127. With ACCCCTAC the “PBM E-score” value was 0.00018. In the case of AAAAACAT, the “PBM E-score” value is reported as 0.0946. For AGCCCTAT, the “PBM E-score” value was 0.107. CTTACACC was tested, and the “PBM E-score” value was -0.12. CTTGGACA was tested, and the “PBM E-score” value was -0.0703. CGTAGAAA was tested, and the “PBM E-score” value was -0.0991. In the case of GAAACTTA, the “PBM E-score” value is reported as 0.206. With CAGTCGCC the “PBM E-score” value was -0.0835. In the case of TGAACCCA, the “PBM E-score” value is reported as 0.157. For AGATTCAT, the “PBM E-score” value was -0.0273. With AGGAAGCA the “PBM E-score” value was -0.0844. AGTTTTTA was tested, and the “PBM E-score” value was -0.134. With CAAGTGGA the “PBM E-score” value was -0.0345. For CCTGAGGA, the “PBM E-score” value was 0.0658. CGTACTAC was tested, and the “PBM E-score” value was -0.00081. CACAACAA was tested, and the “PBM E-score” value was -0.0736. With AATCTGGT the “PBM E-score” value was 0.125. AGCCGGAT was tested, and the “PBM E-score” value was -0.0222. AAACTTTA was tested, and the “PBM E-score” value was 0.0843. ATAGGCTG was tested, and the “PBM E-score” value was -0.127. For ACTATGTC, the “PBM E-score” value was -0.0732. With AGCCTTGC the “PBM E-score” value was 0.0158. In the case of AGTCAGGG, the “PBM E-score” value is reported as 0.0383. With ACGTAGGG the “PBM E-score” value was -0.292. GCTTCGAC was tested, and the “PBM E-score” value was -0.0891. GAGGATCA was tested, and the “PBM E-score” value was -0.0642. With CGAGCAGC the “PBM E-score” value was 0.149. TGCGGCCA was tested, and the “PBM E-score” value was -0.0142. For AATTTAGT, the “PBM E-score” value was 0.226. For AGATGGAA, the “PBM E-score” value was 0.109. GTGGTTGA was tested, and the “PBM E-score” value was -0.055. In the case of CGGTTCGC, the “PBM E-score” value is reported as 2e-05. For AAGGCGTA, the “PBM E-score” value was -0.214.
